The match of structure and compound is tentative.
Assays:
human EP4 receptor [1] = molecular target: T1, human EP4 receptor (Homo sapiens, UniProt P35408); experiment: Recombinant human EP4 receptor binding assay (HEK-293-EBNA stable transfectants); settings: read-out: Binding Data (IC50 in nM) hEP4
Procedure: (§1) Human Recombinant EP4 Receptor: Stable Transfectants.
(§2) Plasmids encoding the human EP4 receptor were prepared by cloning the respective coding sequences into the eukaryotic expression vector pCEP4 (Invitrogen). The pCEP4 vector contains an Epstein Barr virus (EBV) origin of replication, which permits episomal replication in primate cell lines expressing EBV nuclear antigen (EBNA-1). It also contains a hygromycin resistance gene that is used for eukaryotic selection. The cells employed for stable transfection were human embryonic kidney cells (HEK-293) that were transfected with and express the EBNA-1 protein. These HEK-293-EBNA cells (Invitrogen) were grown in medium containing Geneticin (G418) to maintain expression of the EBNA-1 protein. HEK-293 cells were grown in DMEM with 10% fetal bovine serum (FBS), 250 μg ml^−1 G418 (Life Technologies) and 200 μg ml^−1 gentamicin or penicillin/streptomycin.
(§3) For transfection, the cells were grown to 50-60% confluency on 10 cm plates. The plasmid pCEP4 incorporating cDNA inserts for the respective human prostanoid receptor (20 μg) was added to 500 μl of 250 mM CaCl2. HEPES buffered saline×2 (2×HBS, 280 mM NaCl, 20 mM HEPES acid, 1.5 mM Na2 HPO4, pH 7.05-7.12) was then added dropwise to a total of 500 μl, with continuous vortexing at room temperature. After 30 min, 9 ml DMEM were added to the mixture. […]

Amino acid sequences for entries named in this document (tags omitted).
UniProt P35408, whole entry: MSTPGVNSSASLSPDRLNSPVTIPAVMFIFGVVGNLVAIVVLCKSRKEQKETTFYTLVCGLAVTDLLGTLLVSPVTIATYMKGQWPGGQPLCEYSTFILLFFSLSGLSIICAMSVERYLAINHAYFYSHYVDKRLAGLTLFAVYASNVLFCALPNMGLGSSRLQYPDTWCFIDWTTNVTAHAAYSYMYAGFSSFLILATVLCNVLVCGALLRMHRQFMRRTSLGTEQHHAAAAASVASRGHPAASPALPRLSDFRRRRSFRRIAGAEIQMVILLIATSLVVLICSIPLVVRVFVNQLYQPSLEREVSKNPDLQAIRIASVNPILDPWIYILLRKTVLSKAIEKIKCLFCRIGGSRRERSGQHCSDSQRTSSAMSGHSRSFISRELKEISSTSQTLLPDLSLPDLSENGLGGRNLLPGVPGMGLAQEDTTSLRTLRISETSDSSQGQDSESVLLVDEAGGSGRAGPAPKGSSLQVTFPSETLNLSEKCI

human EP4 receptor [2] = molecular target: T1, human EP4 receptor; experiment: Recombinant human EP4 receptor functional assay (HEK-293-EBNA stable transfectants); settings: read-out: Functional Data (EC50 in nM) hEP4
Procedure: as §1, §2, §3

IC50 (human EP4 receptor [1]): 500 nM
EC50 (human EP4 receptor [2]): 251 nM
Structure (SMILES): O=C(O)CCC/C=C\C[C@H]1C(=O)C[C@@H](O)C[C@@H]1/C=C/C(O)Cc1ccccc1 (single isomer, unassigned)

From patent US7473704B2, “Cyclohexyl prostaglandin analogs as EP4-receptor agonists” (Allergan, Inc., priority 2003, dated 2009)
